In test [1] the target is T1, EF hands domain (337 to 516 amino acids) of OsDMI3, Y2H construct (rice (Oryza sativa)) (UniProt Q6AVM3).
T1 sequence: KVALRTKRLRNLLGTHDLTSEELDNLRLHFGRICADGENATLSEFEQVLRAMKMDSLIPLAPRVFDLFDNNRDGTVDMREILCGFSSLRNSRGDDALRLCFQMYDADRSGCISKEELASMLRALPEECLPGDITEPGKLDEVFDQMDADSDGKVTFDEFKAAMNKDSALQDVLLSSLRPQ
The experiment in a line: two-hybrid.

The target of test [2] is T2, OsDMI3 (pGBKT7-OsDMI3) (rice (Oryza sativa)) (UniProt Q6AVM3).
T2 sequence: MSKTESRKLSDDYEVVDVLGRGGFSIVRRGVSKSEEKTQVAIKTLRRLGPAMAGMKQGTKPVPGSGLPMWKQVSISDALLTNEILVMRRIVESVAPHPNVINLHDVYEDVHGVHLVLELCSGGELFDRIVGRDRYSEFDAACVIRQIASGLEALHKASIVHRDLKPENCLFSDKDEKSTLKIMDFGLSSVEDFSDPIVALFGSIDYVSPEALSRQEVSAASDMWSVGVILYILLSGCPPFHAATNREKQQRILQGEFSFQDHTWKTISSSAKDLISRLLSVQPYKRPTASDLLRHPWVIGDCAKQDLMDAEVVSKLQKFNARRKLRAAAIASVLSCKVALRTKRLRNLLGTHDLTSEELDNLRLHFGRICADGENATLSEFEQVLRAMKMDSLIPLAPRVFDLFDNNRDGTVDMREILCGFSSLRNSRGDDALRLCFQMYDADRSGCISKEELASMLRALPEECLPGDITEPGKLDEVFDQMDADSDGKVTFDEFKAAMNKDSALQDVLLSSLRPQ
Put plainly: two-hybrid.

Test [3] deals with T3, OsDMI3-Myc (rice (Oryza sativa)) (UniProt Q6AVM3).
T3 sequence: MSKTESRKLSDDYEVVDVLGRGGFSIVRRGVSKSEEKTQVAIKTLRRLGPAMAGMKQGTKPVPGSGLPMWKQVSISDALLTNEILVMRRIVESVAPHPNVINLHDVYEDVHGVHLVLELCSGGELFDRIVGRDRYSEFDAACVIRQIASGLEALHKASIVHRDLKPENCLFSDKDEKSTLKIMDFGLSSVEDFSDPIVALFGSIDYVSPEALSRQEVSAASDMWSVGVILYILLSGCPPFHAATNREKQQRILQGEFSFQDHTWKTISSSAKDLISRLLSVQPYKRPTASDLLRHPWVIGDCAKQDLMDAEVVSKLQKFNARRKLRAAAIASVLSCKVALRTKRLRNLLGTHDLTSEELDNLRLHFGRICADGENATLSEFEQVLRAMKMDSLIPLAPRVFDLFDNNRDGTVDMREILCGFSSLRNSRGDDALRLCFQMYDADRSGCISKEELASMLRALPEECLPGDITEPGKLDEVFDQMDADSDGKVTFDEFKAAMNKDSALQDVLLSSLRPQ
The experiment in a line: co-IP.

Test [4] has as its target EF hands domain (337 to 516 amino acids) of OsDMI3, LCI construct (rice (Oryza sativa)) (UniProt Q6AVM3). Put plainly: split reporter.
Test [5] addresses T4, OsDMI3 split-YFP fusion for BiFC (rice (Oryza sativa)) (UniProt Q6AVM3).
T4 sequence: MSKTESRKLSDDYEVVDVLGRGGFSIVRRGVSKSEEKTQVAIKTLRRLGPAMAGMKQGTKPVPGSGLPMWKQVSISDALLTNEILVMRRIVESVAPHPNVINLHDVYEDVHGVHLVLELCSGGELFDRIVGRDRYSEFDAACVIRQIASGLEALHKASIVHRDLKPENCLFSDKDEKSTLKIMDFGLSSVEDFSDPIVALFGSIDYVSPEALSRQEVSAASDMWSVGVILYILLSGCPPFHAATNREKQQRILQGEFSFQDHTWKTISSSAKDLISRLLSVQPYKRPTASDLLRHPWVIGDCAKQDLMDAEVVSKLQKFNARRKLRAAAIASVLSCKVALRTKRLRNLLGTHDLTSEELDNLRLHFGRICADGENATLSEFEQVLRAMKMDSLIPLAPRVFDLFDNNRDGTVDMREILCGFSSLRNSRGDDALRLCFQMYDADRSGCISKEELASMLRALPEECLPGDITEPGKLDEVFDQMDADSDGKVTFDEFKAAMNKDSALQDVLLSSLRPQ
Put plainly: split reporter.

Results are given in words; binding and its absence hold for the method and conditions named. For part of these data: Binding seen in cells or lysates may run through a third protein. Some entries that bind do so weakly or less than the wild type. For part of these data: Tags and fused reporters may be left off the sequences shown.

B1: OsMKK6 (pGADT7-OsMKK6) (enzyme, UniProt Q5QN75 1-355)
chain: MRGKKPHKELKLSVPAQETPVDKFLTASGTFKDGELRLNQRGLQLISEETADEPQSTNLKVEDVQLSMDDLEMIQVIGKGSGGIVQLVRHKWVGTLYALKGIQMNIQEAVRKQIVQELKINQATQNAHIVLCHQSFYHNGVIYLVLEYMDRGSLADIIKQVKTILEPYLAVLCKQVLEGLLYLHHERHVIHRDIKPSNLLVNRKGEVKITDFGVSAVLASSMGQRDTFVGTYNYMAPERISGSSYDYKSDIWSLGLVILECAIGRFPYIPSEGEGWLSFYELLEAIVDQPPPSAPADQFSPEFCAFISSCIQKDPAERMSASELLNHPFIKKFEDKDLDLRILVESLEPPMNISE
On to B1, for which the binding entry in test [1] and in test [2] was “binds” throughout.

B2: OsMKK6-Flag (enzyme, UniProt Q5QN75 1-355)
chain: MRGKKPHKELKLSVPAQETPVDKFLTASGTFKDGELRLNQRGLQLISEETADEPQSTNLKVEDVQLSMDDLEMIQVIGKGSGGIVQLVRHKWVGTLYALKGIQMNIQEAVRKQIVQELKINQATQNAHIVLCHQSFYHNGVIYLVLEYMDRGSLADIIKQVKTILEPYLAVLCKQVLEGLLYLHHERHVIHRDIKPSNLLVNRKGEVKITDFGVSAVLASSMGQRDTFVGTYNYMAPERISGSSYDYKSDIWSLGLVILECAIGRFPYIPSEGEGWLSFYELLEAIVDQPPPSAPADQFSPEFCAFISSCIQKDPAERMSASELLNHPFIKKFEDKDLDLRILVESLEPPMNISE
Regarding B2, the binding result in test [3] is on record as “binds”.

B3: OsMKK6, LCI construct (enzyme, UniProt Q5QN75 1-355)
chain: MRGKKPHKELKLSVPAQETPVDKFLTASGTFKDGELRLNQRGLQLISEETADEPQSTNLKVEDVQLSMDDLEMIQVIGKGSGGIVQLVRHKWVGTLYALKGIQMNIQEAVRKQIVQELKINQATQNAHIVLCHQSFYHNGVIYLVLEYMDRGSLADIIKQVKTILEPYLAVLCKQVLEGLLYLHHERHVIHRDIKPSNLLVNRKGEVKITDFGVSAVLASSMGQRDTFVGTYNYMAPERISGSSYDYKSDIWSLGLVILECAIGRFPYIPSEGEGWLSFYELLEAIVDQPPPSAPADQFSPEFCAFISSCIQKDPAERMSASELLNHPFIKKFEDKDLDLRILVESLEPPMNISE
On to B3, for which the binding entry in test [4] was “binds”.

B4: OsMKK6 split-YFP fusion for BiFC (enzyme, UniProt Q5QN75 1-355)
chain: MRGKKPHKELKLSVPAQETPVDKFLTASGTFKDGELRLNQRGLQLISEETADEPQSTNLKVEDVQLSMDDLEMIQVIGKGSGGIVQLVRHKWVGTLYALKGIQMNIQEAVRKQIVQELKINQATQNAHIVLCHQSFYHNGVIYLVLEYMDRGSLADIIKQVKTILEPYLAVLCKQVLEGLLYLHHERHVIHRDIKPSNLLVNRKGEVKITDFGVSAVLASSMGQRDTFVGTYNYMAPERISGSSYDYKSDIWSLGLVILECAIGRFPYIPSEGEGWLSFYELLEAIVDQPPPSAPADQFSPEFCAFISSCIQKDPAERMSASELLNHPFIKKFEDKDLDLRILVESLEPPMNISE
As for B4, the binding result in test [5] is on record as “binds”.

B5: N-terminus domain (1 to 71 amino acids) of OsMKK6, Y2H construct (domain or fragment, UniProt Q5QN75 1-71)
chain: MRGKKPHKELKLSVPAQETPVDKFLTASGTFKDGELRLNQRGLQLISEETADEPQSTNLKVEDVQLSMDDL
Consider B5, for which the binding result in test [2] is “binds”.

These data come from doi:10.1101/2020.10.21.348805 (bioRxiv, 2020).
